From PMC11445491
These are yes or no findings as the source states them, for the method shown. Binding seen in cells or lysates may run through a third protein. Some binding calls cover weakened binding; strength is not graded here.

Chains of the proteins cited; added tags and fusions are not shown. Lines headed by an entry give the natural chain unless they say otherwise; changes in a name come on top. A line that says so, or that is headed by a name, gives the form on record, which may keep a tag or linker. Residues count along the entry.
UniProt Q14790: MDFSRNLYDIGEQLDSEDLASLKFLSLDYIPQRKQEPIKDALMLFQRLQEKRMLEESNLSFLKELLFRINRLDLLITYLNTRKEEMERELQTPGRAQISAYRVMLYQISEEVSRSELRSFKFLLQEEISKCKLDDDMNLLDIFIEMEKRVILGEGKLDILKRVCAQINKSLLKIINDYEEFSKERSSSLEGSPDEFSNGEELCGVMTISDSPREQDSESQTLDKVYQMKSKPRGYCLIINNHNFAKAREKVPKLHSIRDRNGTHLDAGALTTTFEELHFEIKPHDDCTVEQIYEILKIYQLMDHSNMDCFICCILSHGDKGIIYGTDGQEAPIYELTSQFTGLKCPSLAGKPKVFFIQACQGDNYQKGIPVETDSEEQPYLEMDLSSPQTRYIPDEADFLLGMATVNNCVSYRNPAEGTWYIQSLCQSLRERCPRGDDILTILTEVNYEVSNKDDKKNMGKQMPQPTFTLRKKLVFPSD
3xFLAG/TNFR1 WT, reconstituted in TNFR1 knockdown cells (P19438, residues 30-455): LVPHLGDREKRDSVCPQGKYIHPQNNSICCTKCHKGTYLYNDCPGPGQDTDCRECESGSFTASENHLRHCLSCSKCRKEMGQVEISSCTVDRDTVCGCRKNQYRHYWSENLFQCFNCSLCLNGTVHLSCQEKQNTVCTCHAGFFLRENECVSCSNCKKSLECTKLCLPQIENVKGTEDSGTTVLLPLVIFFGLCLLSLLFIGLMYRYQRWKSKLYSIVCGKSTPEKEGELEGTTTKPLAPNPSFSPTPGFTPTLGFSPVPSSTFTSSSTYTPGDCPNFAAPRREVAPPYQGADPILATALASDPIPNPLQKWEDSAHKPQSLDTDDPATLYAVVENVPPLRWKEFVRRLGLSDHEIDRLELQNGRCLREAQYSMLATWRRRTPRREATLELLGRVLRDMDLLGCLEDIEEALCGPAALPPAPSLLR
3xFLAG/TNFR1 Y360/401F, reconstituted in TNFR1 knockdown cells (P19438, form named): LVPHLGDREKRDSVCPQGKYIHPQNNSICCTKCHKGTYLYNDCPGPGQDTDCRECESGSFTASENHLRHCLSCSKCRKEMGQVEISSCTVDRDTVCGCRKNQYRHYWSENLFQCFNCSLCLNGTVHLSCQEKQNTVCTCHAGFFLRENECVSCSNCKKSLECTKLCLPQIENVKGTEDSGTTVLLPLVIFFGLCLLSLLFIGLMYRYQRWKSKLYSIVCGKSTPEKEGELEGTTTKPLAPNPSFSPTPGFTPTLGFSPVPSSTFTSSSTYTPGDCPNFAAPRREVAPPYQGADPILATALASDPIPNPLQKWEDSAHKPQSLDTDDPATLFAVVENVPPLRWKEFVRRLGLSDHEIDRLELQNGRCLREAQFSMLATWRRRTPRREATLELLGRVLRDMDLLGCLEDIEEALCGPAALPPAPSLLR
3xFLAG/TNFR1 Y360/401D, reconstituted in TNFR1 knockdown cells (P19438, form named): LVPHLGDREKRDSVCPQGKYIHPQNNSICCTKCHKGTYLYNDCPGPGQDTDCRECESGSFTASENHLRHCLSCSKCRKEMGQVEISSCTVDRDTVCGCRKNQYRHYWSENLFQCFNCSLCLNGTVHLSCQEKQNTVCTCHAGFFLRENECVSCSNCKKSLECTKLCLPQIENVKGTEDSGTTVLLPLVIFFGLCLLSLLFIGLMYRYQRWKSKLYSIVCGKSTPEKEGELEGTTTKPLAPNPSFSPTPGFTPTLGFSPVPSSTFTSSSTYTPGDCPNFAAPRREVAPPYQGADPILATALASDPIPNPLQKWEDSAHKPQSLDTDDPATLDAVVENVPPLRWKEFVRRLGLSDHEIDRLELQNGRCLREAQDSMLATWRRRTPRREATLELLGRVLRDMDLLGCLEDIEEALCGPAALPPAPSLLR
TNFR1 Y360D in pCS5/3xFLAG (P19438, form named): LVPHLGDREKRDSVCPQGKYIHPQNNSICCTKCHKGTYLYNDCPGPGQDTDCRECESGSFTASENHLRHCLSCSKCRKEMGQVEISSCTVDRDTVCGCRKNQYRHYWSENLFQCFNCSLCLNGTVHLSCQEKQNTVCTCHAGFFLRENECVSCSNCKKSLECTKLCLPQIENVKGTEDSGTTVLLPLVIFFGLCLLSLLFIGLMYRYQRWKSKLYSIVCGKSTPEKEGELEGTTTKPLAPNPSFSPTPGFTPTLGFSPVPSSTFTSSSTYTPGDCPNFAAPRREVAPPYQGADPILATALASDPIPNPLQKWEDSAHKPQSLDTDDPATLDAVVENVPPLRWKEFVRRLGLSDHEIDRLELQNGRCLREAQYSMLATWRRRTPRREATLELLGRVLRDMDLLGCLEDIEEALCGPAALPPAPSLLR
TNFR1 Y401D in pCS5/3xFLAG (P19438, form named): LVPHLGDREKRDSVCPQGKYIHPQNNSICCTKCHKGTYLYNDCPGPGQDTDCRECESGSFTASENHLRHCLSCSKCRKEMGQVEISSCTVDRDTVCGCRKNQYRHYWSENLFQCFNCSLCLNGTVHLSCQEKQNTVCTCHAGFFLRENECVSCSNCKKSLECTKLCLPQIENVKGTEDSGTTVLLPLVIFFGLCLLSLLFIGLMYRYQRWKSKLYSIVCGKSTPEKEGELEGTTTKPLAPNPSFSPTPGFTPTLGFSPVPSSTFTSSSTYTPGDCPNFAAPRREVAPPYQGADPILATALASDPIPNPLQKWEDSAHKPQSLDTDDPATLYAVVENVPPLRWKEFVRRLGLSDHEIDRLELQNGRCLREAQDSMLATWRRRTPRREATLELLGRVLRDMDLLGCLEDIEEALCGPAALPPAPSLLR

Columns and labels:
[1] = target: caspase-8, endogenous (human (endogenous in HT-29, HeLa, Panc-1)) (UniProt Q14790); test: co-IP; HT-29 cells, endogenous complex IIb (T/Bi) and complex IIa (T/C), with or without EGFR inhibitors (Fig. S11D, S13D); precipitating antibody not shown
[2] = target: caspase-8, endogenous (human (endogenous in HT-29, HeLa, Panc-1)) (UniProt Q14790); test: co-IP; HeLa cells, endogenous; T/Bi (complex IIb) or T/C (complex IIa) with or without 250 ng/mL EGF; anti-caspase-8 antibodies and protein G agarose (Fig. 5C; antibody of Fig. S15C not shown)
[3] = target: 3xFLAG/TNFR1 WT, reconstituted in TNFR1 knockdown cells (UniProt P19438); test: co-IP; 3xFLAG/TNFR1 WT, Y360/401D or Y360/401F reconstituted HeLa cells; T/Bi with or without 250 ng/mL EGF for 15 min; anti-FLAG antibodies and protein G agarose
[4] = target: 3xFLAG/TNFR1 Y360/401F, reconstituted in TNFR1 knockdown cells (UniProt P19438); test: as above
[5] = target: TNFR1 wild type in pCS5/3xFLAG (UniProt P19438); test: co-IP; TNFR1 WT, Y360D, Y401D and Y360/401D against RIPK1 or TRADD (Fig. S21B, S21C); cells and antibodies not shown
[6] = target: TNFR1 Y360/401D in pCS5/3xFLAG (UniProt P19438); test: as above
[7] = target: TNFR1 Y360D in pCS5/3xFLAG (UniProt P19438); test: as above
[8] = target: TNFR1 Y401D in pCS5/3xFLAG (UniProt P19438); test: as above
[9] = target: 3xFLAG/TNFR1 WT, reconstituted in TNFR1 knockdown cells (UniProt P19438); test: co-IP; 3xFLAG/TNFR1 WT, Y360/401D or Y360/401F reconstituted HT-29 cells; T/Bi/Z with or without 20 μM erlotinib for 30 min; anti-FLAG antibodies and protein G agarose
[10] = target: 3xFLAG/TNFR1 Y360/401D, reconstituted in TNFR1 knockdown cells (UniProt P19438); test: as above
[11] = target: 3xFLAG/TNFR1 Y360/401F, reconstituted in TNFR1 knockdown cells (UniProt P19438); test: as above

Measured: binding

B1: TNFR1 associated death domain protein (TRADD), endogenous (protein, UniProt Q15628 1-312)
chain: MAAGQNGHEEWVGSAYLFVESSLDKVVLSDAYAHPQQKVAVYRALQAALAESGGSPDVLQMLKIHRSDPQLIVQLRFCGRQPCGRFLRAYREGALRAALQRSLAAALAQHSVPLQLELRAGAERLDALLADEERCLSCILAQQPDRLRDEELAELEDALRNLKCGSGARGGDGEVASAPLQPPVPSLSEVKPPPPPPPAQTFLFQGQPVVNRPLSLKDQQTFARSVGLKWRKVGRSLQRGCRALRDPALDSLAYEYEREGLYEQAFQLLRRFVQAEGRRATLQRLVEALEENELTSLAEDLLGLTDPNGGLA
binds: all assays above
